No constants are given. Whether binding was seen depends on the method and setting. Binding seen in cells or lysates may run through a third protein. A yes stands for co-enrichment or nearness to the bait. Other partners may have been found. Sequences can lack the tags named with a protein.

Protein sequences, listed by entry. Tags and fused reporters are not part of them. Lines headed by an entry give the natural chain unless they say otherwise; changes in a name come on top.
UniProt Q9P219: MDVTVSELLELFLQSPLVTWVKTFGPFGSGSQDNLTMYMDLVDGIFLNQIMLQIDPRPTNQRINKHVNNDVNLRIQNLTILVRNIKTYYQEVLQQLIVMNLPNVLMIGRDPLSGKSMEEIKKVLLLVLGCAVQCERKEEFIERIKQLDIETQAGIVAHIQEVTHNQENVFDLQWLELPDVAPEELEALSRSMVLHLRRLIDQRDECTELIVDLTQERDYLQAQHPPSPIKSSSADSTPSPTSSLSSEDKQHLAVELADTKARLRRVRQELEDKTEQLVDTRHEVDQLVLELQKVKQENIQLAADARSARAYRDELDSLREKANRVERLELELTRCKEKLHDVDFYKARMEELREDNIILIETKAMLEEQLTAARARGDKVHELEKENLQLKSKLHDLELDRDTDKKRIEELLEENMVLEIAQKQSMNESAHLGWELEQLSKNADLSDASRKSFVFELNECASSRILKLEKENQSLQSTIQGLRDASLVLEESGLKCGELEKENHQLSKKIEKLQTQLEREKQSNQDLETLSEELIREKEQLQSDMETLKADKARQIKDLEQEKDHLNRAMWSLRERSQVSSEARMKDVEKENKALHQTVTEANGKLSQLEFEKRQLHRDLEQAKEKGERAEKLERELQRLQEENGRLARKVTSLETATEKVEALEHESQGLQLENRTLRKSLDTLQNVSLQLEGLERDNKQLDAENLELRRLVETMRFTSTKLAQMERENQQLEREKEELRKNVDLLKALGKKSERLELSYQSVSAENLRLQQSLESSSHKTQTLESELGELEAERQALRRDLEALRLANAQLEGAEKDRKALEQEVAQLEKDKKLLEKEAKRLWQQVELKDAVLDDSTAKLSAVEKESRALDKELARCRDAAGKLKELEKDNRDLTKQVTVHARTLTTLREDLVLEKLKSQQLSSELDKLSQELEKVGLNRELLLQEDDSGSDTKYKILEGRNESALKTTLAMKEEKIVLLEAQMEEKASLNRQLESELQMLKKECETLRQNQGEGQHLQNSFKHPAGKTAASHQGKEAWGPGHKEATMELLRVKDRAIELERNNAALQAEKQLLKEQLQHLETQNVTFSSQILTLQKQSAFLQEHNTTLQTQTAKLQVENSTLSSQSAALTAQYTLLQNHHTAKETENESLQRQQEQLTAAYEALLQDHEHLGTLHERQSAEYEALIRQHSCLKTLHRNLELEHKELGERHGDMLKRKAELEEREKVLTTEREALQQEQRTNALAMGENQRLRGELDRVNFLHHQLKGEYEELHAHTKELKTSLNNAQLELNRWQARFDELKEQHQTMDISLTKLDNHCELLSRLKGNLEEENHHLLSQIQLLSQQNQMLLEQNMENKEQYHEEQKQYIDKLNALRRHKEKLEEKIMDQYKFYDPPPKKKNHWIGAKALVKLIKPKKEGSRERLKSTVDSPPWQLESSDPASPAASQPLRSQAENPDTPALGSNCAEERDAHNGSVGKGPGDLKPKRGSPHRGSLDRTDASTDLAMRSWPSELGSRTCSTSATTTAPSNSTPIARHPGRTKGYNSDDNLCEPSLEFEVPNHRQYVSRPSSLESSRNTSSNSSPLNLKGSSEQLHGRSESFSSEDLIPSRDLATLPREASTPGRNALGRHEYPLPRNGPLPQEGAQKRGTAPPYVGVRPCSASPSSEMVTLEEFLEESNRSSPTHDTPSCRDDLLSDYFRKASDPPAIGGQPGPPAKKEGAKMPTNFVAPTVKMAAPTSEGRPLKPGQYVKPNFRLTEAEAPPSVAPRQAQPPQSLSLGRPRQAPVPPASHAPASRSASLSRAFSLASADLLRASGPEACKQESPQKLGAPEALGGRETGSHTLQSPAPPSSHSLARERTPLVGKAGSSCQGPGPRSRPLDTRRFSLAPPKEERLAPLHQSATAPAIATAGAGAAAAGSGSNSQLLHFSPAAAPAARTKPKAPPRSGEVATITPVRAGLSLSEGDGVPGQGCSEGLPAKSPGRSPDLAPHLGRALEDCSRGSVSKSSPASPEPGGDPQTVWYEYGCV
UniProt Q96RN5: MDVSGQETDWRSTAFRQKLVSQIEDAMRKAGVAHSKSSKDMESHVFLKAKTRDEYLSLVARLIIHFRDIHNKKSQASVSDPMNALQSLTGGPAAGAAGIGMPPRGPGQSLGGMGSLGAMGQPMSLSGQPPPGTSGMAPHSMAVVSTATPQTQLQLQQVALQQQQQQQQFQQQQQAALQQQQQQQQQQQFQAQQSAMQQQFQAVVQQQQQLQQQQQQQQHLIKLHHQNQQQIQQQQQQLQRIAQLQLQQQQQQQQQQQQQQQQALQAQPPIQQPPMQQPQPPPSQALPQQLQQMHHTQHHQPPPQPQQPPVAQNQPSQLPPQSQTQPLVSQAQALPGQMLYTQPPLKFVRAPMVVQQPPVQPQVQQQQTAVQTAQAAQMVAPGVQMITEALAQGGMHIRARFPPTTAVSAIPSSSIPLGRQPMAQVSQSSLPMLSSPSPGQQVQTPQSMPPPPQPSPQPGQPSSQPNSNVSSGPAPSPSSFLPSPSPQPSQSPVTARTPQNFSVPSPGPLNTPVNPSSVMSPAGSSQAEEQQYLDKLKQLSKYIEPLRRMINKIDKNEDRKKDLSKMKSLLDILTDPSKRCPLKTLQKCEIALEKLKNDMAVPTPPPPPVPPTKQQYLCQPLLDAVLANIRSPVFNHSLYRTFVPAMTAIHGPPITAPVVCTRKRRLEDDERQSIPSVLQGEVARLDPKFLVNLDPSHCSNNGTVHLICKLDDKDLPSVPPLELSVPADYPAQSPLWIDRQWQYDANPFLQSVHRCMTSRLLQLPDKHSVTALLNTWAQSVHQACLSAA

In this assay the target is T1, triple epitope (S-peptide, FLAG, and streptavidin-binding peptide)-tagged TRIM11 (human) (UniProt Q96F44).
T1 sequence: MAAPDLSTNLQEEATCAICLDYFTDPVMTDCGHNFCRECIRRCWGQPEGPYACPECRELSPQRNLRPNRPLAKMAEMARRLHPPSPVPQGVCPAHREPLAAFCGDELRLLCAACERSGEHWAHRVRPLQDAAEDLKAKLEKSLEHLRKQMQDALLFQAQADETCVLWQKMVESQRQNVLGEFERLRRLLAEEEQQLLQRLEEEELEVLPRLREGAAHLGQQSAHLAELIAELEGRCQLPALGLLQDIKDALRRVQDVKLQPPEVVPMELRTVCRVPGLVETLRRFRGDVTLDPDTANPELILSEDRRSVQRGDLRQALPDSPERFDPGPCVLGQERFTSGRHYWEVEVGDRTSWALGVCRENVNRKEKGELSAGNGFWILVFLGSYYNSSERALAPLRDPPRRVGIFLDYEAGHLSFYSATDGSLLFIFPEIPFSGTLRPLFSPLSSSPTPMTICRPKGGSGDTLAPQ
Description: affinity purification with mass spectrometry; tandem affinity purification of SFB-TRIM11 from CNE2 lysate (NETN buffer): streptavidin beads, biotin elution, S protein beads; SDS-PAGE bands analysed by mass spectrometry.

Take “Daple (endogenous) (from UniProt Q9P219 1-2028)”: the binding entry was “binds”.

For the substance ARC105 (from UniProt Q96RN5), the binding entry is given as “binds”.

The values are drawn from PMC7206012.
